{"sequences": {"note": "The chains behind the UniProt entries cited, without tags or fusion partners.", "UniProt Q16539, whole entry": "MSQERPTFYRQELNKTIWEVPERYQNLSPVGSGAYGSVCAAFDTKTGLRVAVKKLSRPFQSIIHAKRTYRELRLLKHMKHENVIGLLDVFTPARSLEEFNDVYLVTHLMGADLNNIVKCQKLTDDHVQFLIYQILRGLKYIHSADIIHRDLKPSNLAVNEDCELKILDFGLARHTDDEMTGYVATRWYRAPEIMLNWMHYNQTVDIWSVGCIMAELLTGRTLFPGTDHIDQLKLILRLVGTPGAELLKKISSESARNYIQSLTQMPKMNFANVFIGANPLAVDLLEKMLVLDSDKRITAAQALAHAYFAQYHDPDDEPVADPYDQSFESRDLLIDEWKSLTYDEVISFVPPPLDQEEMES"}, "source": "patent US20100144755A1", "about": "(Glaxo Group Limited, priority 2006, published 2010)", "note": "Counter-ions that a name gives are not always drawn. Some results were stated once for a whole list of compounds, not compound by compound.", "data": [{"molecular_target": "T1, Recombinant human p38α (Homo sapiens, UniProt Q16539)", "T1 construct": "His; made in house", "experiment": "Time-resolved fluorescence resonance energy transfer (TR-FRET) kinase assay (standard and low volume)", "type": "biochemical", "design": "key: active: a pIC50 of greater than 4.6 up to about a pIC50 of greater than 10.0", "settings": "MKK6-activated p38α 100 pM, GST-ATF2 substrate; result in words", "method": "Time-Resolved Fluorescence Resonance Energy Transfer Linase Standard Assay\n(§1) Recombinant human p38α was expressed as a His-tagged protein. To activate this protein, 3 μM unactivated p38α was incubated in 200 mM Hepes pH 7.4, 625 mM NaCl, 1 mM DTT with 27 nM active MKK6 (Upstate), 1 mM ATP and 10 mM MgCl2 The activity of the MKK6-activated p38α was assessed using a time-resolved fluorescence resonance energy transfer (TR-FRET) assay.\nBiotinylated-GST-ATF2 (residues 19-96, 400 nM final), ATP ([…]) and MgCl2 (5 mM final) in assay buffer (40 mM HEPES pH 7.4, 1 mM DTT) were added to wells containing 1 ul of various concentrations of compound or DMSO vehicle (3% final) in NUNC 384 well black plate. The reaction was initiated by the addition of MKK6-activated p38 (100 pM final) to give a total volume of 30 ul. The reaction was incubated for 120 minutes at room temperature, then terminated by the addition of 15 μl of 100 mM EDTA pH 7.4. Detection reagent (15 μl) in buffer (100 mM HEPES pH 7.4, 150 mM NaCl, 0.1% w/v BSA, 1 mM DTT) containing antiphosphothreonine-ATF2-71 polyclonal antibody (Cell Signalling Technology, Beverly Mass., USA) labelled with W-1024 europium chelate (Wallac O Y, Turku, Finland), and APC-labelled streptavidin (Prozyme, San Leandro, Calif., USA) was added and the reaction was further incubated for 60 minutes at room temperature. The degree of phosphorylation of GST-ATF2 was measured using a Packard Discovery plate reader (Perkin-Elmer Life Sciences, Pangbourne, UK) as a ratio of specific 665 nm energy transfer signal to reference europium 620 nm signal.\nTime-Resolved Fluorescence Resonance Energy Transfer Kinase Low Volume Assay\nas §1, with “pH7.4,” for “pH 7.4,”\nBiotinylated-GST-ATF2 (residues 19-96, 400 nM final), ATP (125 μM final) and MgCl2 (5 mM final) in assay buffer (40 mM HEPES pH 7.4, 1 mM DTT) were added to wells containing 0.1 μl of various concentrations of compound or DMSO vehicle (1.7% final) in Greiner low volume 384 well black plate. The reaction was initiated by the addition of MKK6-activated p38α (100 pM final) to give a total volume of 6 μl. The reaction was incubated for 120 minutes at room temperature, then terminated by the addition of 3 μl of detection reagent in buffer (100 mM HEPES pH 7.4, 150 mM NaCl, 0.1% w/v BSA, 1 mM DTT, 100 mM EDTA) containing antiphosphothreonine-ATF2-71 polyclonal antibody (Cell Signalling Technology, Beverly Mass., USA) labelled with W-1024 europium chelate (Wallac O Y, Turku, Finland), and APC-labelled streptavidin (Prozyme, San Leandro, Calif., USA). The reaction was further incubated for 60 minutes at room temperature. The degree of phosphorylation of GST-ATF2 was measured using a BMG Rubystar plate reader (BMG, UK) as a ratio of specific 665 nm energy transfer signal to reference europium 620 nm signal.\nIt is noted that there are two assay formats shown above for the Time-resolved fluorescence resonance energy transfer kinase assay. The only difference between these two assays is the volume used and the plate type. […] The results described herein may have been performed in either assay format and are not differentiated as to which.", "values": [{"smiles": "CCCCNC(=O)c1ccc(C)c(-c2nc(NCCCN(CC)CC)nc3c2ccc(=O)n3-c2c(F)cccc2F)c1", "note": "[Example 123, N-butyl-3-[2-{[3-(diethylamino)propyl]amino}-8-(2,6-difluorophenyl)-7-oxo-7,8-dihydropyrido[2,3-d]pyrimidin-4-yl]-4-methylbenzamide]", "activity (pIC50) in TR-FRET p38α kinase assay": "active"}, {"smiles": "CCN(CC)CCCNc1nc(-c2cc(C(=O)NCC(F)(F)F)ccc2C)c2ccc(=O)n(-c3c(F)cccc3F)c2n1", "note": "[Example 128, 3-[2-{[3-(diethylamino)propyl]amino}-8-(2,6-difluorophenyl)-7-oxo-7,8-dihydropyrido[2,3-d]pyrimidin-4-yl]-4-methyl-N-(2,2,2-trifluoroethyl)benzamide]", "activity (pIC50) in TR-FRET p38α kinase assay": "active"}, {"smiles": "CCN(CC)CCCNc1nc(-c2cc(C(=O)NCc3ccc(C)o3)ccc2C)c2ccc(=O)n(-c3c(F)cccc3F)c2n1", "note": "[Example 136, 3-[2-{[3-(diethylamino)propyl]amino}-8-(2,6-difluorophenyl)-7-oxo-7,8-dihydropyrido[2,3-d]pyrimidin-4-yl]-4-methyl-N-[(5-methyl-2-furanyl)methyl]benzamide trifluoroacetate]", "activity (pIC50) in TR-FRET p38α kinase assay": "active"}, {"smiles": "CCN(CC)CCCNc1nc(-c2cc(C(=O)NCCOC)ccc2C)c2ccc(=O)n(-c3c(F)cccc3F)c2n1", "note": "[Example 134, 3-[2-{[3-(diethylamino)propyl]amino}-8-(2,6-difluorophenyl)-7-oxo-7,8-dihydropyrido[2,3-d]pyrimidin-4-yl]-4-methyl-N-[2-(methyloxy)ethyl]benzamidetrifluoroacetate]", "activity (pIC50) in TR-FRET p38α kinase assay": "active"}, {"smiles": "CCN(CC)CCCNc1nc(-c2cc(C(=O)NC3CCCCC3)ccc2C)c2ccc(=O)n(-c3c(F)cccc3F)c2n1", "note": "[Example 143, N-cyclohexyl-3-[2-{[3-(diethylamino)propyl]amino}-8-(2,6-difluorophenyl)-7-oxo-7,8-dihydropyrido[2,3-d]pyrimidin-4-yl]-4-methylbenzamide]", "activity (pIC50) in TR-FRET p38α kinase assay": "active"}, {"smiles": "CCN(CC)CCCNc1nc(-c2cc(C(=O)N[C@@H](C)c3ccccc3)ccc2C)c2ccc(=O)n(-c3c(F)cccc3F)c2n1", "note": "[Example 149, 3-[2-{[3-(diethylamino)propyl]amino}-8-(2,6-difluorophenyl)-7-oxo-7,8-dihydropyrido[2,3-d]pyrimidin-4-yl]-4-methyl-N-[(1S)-1-phenylethyl]benzamide]", "activity (pIC50) in TR-FRET p38α kinase assay": "active"}, {"smiles": "CCN(CC)CCCNc1nc(-c2cc(C(=O)NC(C)(C)C)ccc2C)c2ccc(=O)n(-c3c(F)cccc3F)c2n1", "note": "[Example 126, 3-[2-{[3-(diethylamino)propyl]amino}-8-(2,6-difluorophenyl)-7-oxo-7,8-dihydropyrido[2,3-d]pyrimidin-4-yl]-N-(1,1-dimethylethyl)-4-methylbenzamide]", "activity (pIC50) in TR-FRET p38α kinase assay": "active"}, {"smiles": "CCN(CC)CCCNc1nc(-c2cc(C(=O)NCC3CCCO3)ccc2C)c2ccc(=O)n(-c3c(F)cccc3F)c2n1", "note": "(stereo not drawn) [Example 142, 3-[2-{[3-(diethylamino)propyl]amino}-8-(2,6-difluorophenyl)-7-oxo-7,8-dihydropyrido[2,3-d]pyrimidin-4-yl]-4-methyl-N-(tetrahydro-2-furanylmethyl)benzamide trifluoroacetate]", "activity (pIC50) in TR-FRET p38α kinase assay": "active"}, {"smiles": "CCN(CC)CCCNc1nc(-c2cc(C(=O)NCc3cccs3)ccc2C)c2ccc(=O)n(-c3c(F)cccc3F)c2n1", "note": "[Example 139, 3-[2-{[3-(diethylamino)propyl]amino}-8-(2,6-difluorophenyl)-7-oxo-7,8-dihydropyrido[2,3-d]pyrimidin-4-yl]-4-methyl-N-(2-thienylmethyl)benzamide trifluoroacetate]", "activity (pIC50) in TR-FRET p38α kinase assay": "active"}, {"smiles": "CCN(CC)CCCNc1nc(-c2cc(C(=O)Nc3ccc(F)cc3)ccc2C)c2ccc(=O)n(-c3c(F)cccc3F)c2n1", "note": "[Example 160, 3-[2-{[3-(diethylamino)propyl]amino}-8-(2,6-difluorophenyl)-7-oxo-7,8-dihydropyrido[2,3-d]pyrimidin-4-yl]-N-(4-fluorophenyl)-4-methylbenzamide]", "activity (pIC50) in TR-FRET p38α kinase assay": "active"}, {"smiles": "Cc1ccc(C(=O)O)cc1-c1nc(NCc2ncc[nH]2)nc2c1ccc(=O)n2-c1c(F)cccc1F", "note": "[Example 98, 3-{8-(2,6-difluorophenyl)-2-[(1H-imidazol-2-ylmethyl)amino]-7-oxo-7,8-dihydropyrido[2,3-d]pyrimidin-4-yl}-4-methylbenzoic acid trifluoroacetate]", "activity (pIC50) in TR-FRET p38α kinase assay": "active"}, {"smiles": "CCN(CC)CCCNc1nc(-c2cc(C(=O)N[C@H](C)C(C)C)ccc2C)c2ccc(=O)n(-c3c(F)cccc3F)c2n1", "note": "[Example 130, 3-[2-{[3-(diethylamino)propyl]amino}-8-(2,6-difluorophenyl)-7-oxo-7,8-dihydropyrido[2,3-d]pyrimidin-4-yl]-N-[(1R)-1,2-dimethylpropyl]-4-methylbenzamide]", "activity (pIC50) in TR-FRET p38α kinase assay": "active"}, {"smiles": "CCN(CC)CCCNc1nc(-c2cc(C(=O)NCC(C)(C)C)ccc2C)c2ccc(=O)n(-c3c(F)cccc3F)c2n1", "note": "[Example 127, 3-[2-{[3-(diethylamino)propyl]amino}-8-(2,6-difluorophenyl)-7-oxo-7,8-dihydropyrido[2,3-d]pyrimidin-4-yl]-N-(2,2-dimethylpropyl)-4-methylbenzamide]", "activity (pIC50) in TR-FRET p38α kinase assay": "active"}, {"smiles": "CCN(CC)CCCNc1nc(-c2cc(C(=O)NCC(C)C)ccc2C)c2ccc(=O)n(-c3c(F)cccc3F)c2n1", "note": "[Example 124, 3-[2-{[3-(diethylamino)propyl]amino}-8-(2,6-difluorophenyl)-7-oxo-7,8-dihydropyrido[2,3-d]pyrimidin-4-yl]-4-methyl-N-(2-methylpropyl)benzamide]", "activity (pIC50) in TR-FRET p38α kinase assay": "active"}, {"smiles": "CCN(CC)CCCNc1nc(-c2cc(C(=O)NCC3CCOCC3)ccc2C)c2ccc(=O)n(-c3c(F)cccc3F)c2n1", "note": "[Example 141, 3-[2-{[3-(diethylamino)propyl]amino}-8-(2,6-difluorophenyl)-7-oxo-7,8-dihydropyrido[2,3-d]pyrimidin-4-yl]-4-methyl-N-(tetrahydro-2H-pyran-4-ylmethyl)benzamide trifluoroacetate]", "activity (pIC50) in TR-FRET p38α kinase assay": "active"}, {"smiles": "CCC(C)NC(=O)c1ccc(C)c(-c2nc(NCCCN(CC)CC)nc3c2ccc(=O)n3-c2c(F)cccc2F)c1", "note": "(stereo not drawn) [Example 162, 3-[2-{[3-(diethylamino)propyl]amino}-8-(2,6-difluorophenyl)-7-oxo-7,8-dihydropyrido[2,3-d]pyrimidin-4-yl]-4-methyl-N-(1-methylpropyl)benzamide]", "activity (pIC50) in TR-FRET p38α kinase assay": "active"}, {"smiles": "CCN(CC)CCCNc1nc(-c2cc(C(=O)NCCC#N)ccc2C)c2ccc(=O)n(-c3c(F)cccc3F)c2n1", "note": "[Example 145, N-(2-cyanoethyl)-3-[2-{[3-(diethylamino)propyl]amino}-8-(2,6-difluorophenyl)-7-oxo-7,8-dihydropyrido[2,3-d]pyrimidin-4-yl]-4-methylbenzamide]", "activity (pIC50) in TR-FRET p38α kinase assay": "active"}, {"smiles": "CCN(CC)CCCNc1nc(-c2cc(C(=O)N(CC)CC)ccc2C)c2ccc(=O)n(-c3c(F)cccc3F)c2n1", "note": "[Example 140, 3-[2-{[3-(diethylamino)propyl]amino}-8-(2,6-difluorophenyl)-7-oxo-7,8-dihydropyrido[2,3-d]pyrimidin-4-yl]-N,N-diethyl-4-methylbenzamide trifluoroacetate]", "activity (pIC50) in TR-FRET p38α kinase assay": "active"}]}]}
